Construct, isoform or probe ends are uncertain for at least one entry. For some assays here: Results from cells or extracts need not show a direct contact. For some assays here: A negative result means that nothing was seen under these conditions. For some assays here: A weaker result is weaker than the reference pair of the same experiment.
Assays:
[1] = molecular target: STAT-1 (endogenous) (mouse (embryonic fibroblasts)) (UniProt P42225); assay: EMSA; details: PARP-1+/+ and PARP-1-/- extracts, binding unaffected; EMSA in buffer D (5 mM HEPES, 10% glycerol, 0.05 mM EDTA, 0.125 mM PMSF), 25 ng poly(dI-dC) (omitted for recombinant Sp1), room temperature 5 min; pH not stated; protein in an extract; label: 5'-32P
[2] = molecular target: E2F1 (endogenous) (mouse (embryonic fibroblasts)) (UniProt Q61501); assay: EMSA; details: PARP-1+/+ and PARP-1-/- extracts, binding unaffected; EMSA in buffer D (5 mM HEPES, 10% glycerol, 0.05 mM EDTA, 0.125 mM PMSF), 25 ng poly(dI-dC) (omitted for recombinant Sp1), room temperature 5 min; pH not stated; protein in an extract; label: 5'-32P
[3] = molecular target: GST-Sp1-8xHis (UniProt P08047); assay: EMSA; details: EMSA in buffer D (5 mM HEPES, 10% glycerol, 0.05 mM EDTA, 0.125 mM PMSF), 25 ng poly(dI-dC) (omitted for recombinant Sp1), room temperature 5 min, pH not stated, recombinant protein, protein details: GST (N-term), 8xHis (C-term), label: 5'-32P (probe), unlabeled as competitor
[4] = molecular target: Sp1 (endogenous) (UniProt O89090); assay: EMSA; details: EMSA in buffer D (5 mM HEPES, 10% glycerol, 0.05 mM EDTA, 0.125 mM PMSF), 25 ng poly(dI-dC) (omitted for recombinant Sp1), room temperature 5 min, pH not stated, protein in an extract, label: 5'-32P (probe), unlabeled as competitor
[5] = molecular target: Sp1 (endogenous) (UniProt O89090); assay: EMSA supershift; details: PARP-1+/+ extract, complex reduced in PARP-1-/- extract because of lower Sp1 expression; EMSA in buffer D (5 mM HEPES, 10% glycerol, 0.05 mM EDTA, 0.125 mM PMSF), 25 ng poly(dI-dC) (omitted for recombinant Sp1), room temperature 5 min; pH not stated; protein in an extract; label: 5'-32P (probe), unlabeled as competitor
[6] = molecular target: Sp3 (endogenous) (UniProt O70494); assay: EMSA supershift; details: PARP-1+/+ and PARP-1-/- extracts; EMSA in buffer D (5 mM HEPES, 10% glycerol, 0.05 mM EDTA, 0.125 mM PMSF), 25 ng poly(dI-dC) (omitted for recombinant Sp1), room temperature 5 min; pH not stated; protein in an extract; label: 5'-32P (probe), unlabeled as competitor
[7] = molecular target: Sp1 (endogenous) (UniProt O89090); assay: competition with a labelled probe; details: EMSA in buffer D (5 mM HEPES, 10% glycerol, 0.05 mM EDTA, 0.125 mM PMSF), 25 ng poly(dI-dC) (omitted for recombinant Sp1), room temperature 5 min, pH not stated, protein in an extract, label: 5'-32P (probe), unlabeled as competitor
[8] = molecular target: AP-1 (c-jun containing) (mouse (embryonic fibroblasts)) (UniProt P05627); assay: EMSA; details: PARP-1+/+ extract, abolished in PARP-1-/- extract, which lacks c-jun; EMSA in buffer D (5 mM HEPES, 10% glycerol, 0.05 mM EDTA, 0.125 mM PMSF), 25 ng poly(dI-dC) (omitted for recombinant Sp1), room temperature 5 min; pH not stated; protein in an extract; label: 5'-32P

Amino acid sequences for entries named in this document (tags omitted). A change or cut given only in a name is not applied to a line headed by its entry.
UniProt P42225: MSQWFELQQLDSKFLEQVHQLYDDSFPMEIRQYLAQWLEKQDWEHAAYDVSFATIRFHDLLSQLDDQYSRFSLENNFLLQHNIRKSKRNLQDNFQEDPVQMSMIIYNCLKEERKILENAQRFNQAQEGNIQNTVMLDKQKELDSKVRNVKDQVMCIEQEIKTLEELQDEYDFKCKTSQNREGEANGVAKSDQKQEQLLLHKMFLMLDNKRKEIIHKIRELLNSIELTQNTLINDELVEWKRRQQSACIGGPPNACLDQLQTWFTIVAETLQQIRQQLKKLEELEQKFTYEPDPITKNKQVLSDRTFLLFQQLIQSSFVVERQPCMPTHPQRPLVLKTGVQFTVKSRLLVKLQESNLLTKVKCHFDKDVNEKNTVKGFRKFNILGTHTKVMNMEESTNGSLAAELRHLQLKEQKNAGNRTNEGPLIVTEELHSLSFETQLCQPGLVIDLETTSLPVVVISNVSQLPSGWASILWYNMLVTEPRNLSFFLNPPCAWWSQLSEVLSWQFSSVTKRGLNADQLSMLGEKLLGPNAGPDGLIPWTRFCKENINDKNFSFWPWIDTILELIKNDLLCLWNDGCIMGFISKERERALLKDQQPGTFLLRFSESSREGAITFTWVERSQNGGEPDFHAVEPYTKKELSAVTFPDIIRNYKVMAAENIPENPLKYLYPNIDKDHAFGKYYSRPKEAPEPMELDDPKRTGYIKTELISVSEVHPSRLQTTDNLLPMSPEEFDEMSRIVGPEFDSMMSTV
UniProt Q61501: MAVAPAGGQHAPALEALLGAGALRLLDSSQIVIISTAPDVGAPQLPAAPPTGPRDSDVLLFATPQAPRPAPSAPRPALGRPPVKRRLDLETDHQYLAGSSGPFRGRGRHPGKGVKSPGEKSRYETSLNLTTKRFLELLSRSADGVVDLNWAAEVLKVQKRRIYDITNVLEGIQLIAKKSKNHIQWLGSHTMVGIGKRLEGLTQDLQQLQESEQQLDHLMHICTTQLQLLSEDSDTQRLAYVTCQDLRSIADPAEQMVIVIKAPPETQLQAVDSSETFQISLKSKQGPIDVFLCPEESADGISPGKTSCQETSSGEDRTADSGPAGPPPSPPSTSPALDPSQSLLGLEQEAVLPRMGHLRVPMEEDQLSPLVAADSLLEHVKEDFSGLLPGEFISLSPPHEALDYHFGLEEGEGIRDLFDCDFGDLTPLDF
UniProt P08047: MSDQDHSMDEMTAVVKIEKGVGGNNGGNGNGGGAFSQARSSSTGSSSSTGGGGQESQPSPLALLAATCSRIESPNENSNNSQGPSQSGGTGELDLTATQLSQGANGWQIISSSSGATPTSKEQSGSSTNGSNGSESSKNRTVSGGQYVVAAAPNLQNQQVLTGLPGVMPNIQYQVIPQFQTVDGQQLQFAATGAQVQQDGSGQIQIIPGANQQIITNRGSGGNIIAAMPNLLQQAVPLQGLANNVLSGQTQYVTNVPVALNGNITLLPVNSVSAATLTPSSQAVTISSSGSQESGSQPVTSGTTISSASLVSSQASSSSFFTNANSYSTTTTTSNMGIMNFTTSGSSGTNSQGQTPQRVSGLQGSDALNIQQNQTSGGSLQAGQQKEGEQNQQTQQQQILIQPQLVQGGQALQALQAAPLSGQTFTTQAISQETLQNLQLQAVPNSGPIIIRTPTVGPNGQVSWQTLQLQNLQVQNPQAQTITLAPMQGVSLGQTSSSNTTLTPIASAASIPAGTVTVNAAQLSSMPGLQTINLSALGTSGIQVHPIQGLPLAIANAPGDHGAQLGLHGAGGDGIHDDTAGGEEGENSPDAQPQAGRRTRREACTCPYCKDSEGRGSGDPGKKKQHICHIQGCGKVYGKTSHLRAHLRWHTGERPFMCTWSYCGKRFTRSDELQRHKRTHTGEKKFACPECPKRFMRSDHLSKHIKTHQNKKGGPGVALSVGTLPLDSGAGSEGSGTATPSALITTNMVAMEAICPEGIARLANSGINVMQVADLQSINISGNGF
UniProt O89090, whole entry: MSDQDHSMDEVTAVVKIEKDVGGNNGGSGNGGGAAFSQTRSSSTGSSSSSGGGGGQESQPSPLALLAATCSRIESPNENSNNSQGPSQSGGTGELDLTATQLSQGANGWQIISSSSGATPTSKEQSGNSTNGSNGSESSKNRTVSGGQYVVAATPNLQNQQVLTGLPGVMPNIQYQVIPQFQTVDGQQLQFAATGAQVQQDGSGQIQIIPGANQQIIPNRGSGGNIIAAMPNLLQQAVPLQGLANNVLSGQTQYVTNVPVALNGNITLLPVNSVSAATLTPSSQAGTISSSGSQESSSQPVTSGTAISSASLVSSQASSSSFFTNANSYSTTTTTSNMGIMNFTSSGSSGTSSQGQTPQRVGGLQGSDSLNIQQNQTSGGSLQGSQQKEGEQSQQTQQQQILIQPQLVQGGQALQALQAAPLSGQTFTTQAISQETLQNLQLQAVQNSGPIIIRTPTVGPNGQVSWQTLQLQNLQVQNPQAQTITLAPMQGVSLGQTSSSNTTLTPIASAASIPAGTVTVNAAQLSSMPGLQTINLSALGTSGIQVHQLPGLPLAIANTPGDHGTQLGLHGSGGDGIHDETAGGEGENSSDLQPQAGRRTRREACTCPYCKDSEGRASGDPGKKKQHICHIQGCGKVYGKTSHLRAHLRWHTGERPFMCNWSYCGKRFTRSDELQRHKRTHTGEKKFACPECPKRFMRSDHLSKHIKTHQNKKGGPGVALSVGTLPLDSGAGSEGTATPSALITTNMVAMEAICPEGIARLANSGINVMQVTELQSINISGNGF
UniProt O70494: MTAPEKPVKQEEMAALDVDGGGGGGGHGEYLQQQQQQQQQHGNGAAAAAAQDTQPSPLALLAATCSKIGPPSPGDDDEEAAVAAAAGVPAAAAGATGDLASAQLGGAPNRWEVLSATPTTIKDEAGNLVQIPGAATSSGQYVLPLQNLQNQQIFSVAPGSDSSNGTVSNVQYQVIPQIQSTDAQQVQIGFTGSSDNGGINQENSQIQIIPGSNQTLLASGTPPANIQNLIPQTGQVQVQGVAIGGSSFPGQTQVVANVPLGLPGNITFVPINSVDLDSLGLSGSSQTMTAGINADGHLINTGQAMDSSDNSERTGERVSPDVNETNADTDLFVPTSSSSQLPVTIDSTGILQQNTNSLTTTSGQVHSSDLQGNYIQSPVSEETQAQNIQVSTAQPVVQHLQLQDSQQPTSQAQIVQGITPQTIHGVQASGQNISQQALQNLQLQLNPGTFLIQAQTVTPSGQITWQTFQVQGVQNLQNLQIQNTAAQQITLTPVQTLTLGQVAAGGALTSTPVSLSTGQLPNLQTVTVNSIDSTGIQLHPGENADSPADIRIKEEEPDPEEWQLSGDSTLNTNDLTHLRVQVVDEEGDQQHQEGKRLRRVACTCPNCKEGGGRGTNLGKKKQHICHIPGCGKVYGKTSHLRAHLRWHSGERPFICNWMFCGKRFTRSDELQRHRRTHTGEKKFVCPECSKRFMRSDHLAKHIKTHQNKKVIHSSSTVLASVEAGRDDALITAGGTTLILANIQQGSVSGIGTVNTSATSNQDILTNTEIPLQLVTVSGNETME
UniProt P05627, whole entry: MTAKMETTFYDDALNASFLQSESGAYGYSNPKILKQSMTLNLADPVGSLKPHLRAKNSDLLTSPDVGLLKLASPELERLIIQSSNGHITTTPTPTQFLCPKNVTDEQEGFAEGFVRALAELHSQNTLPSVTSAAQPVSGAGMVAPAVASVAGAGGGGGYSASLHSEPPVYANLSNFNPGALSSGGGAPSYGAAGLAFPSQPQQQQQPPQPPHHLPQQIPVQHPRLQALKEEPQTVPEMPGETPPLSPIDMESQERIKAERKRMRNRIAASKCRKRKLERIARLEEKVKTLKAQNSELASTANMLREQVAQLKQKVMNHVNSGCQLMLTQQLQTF

Q: Does “AAGGCGGAGGTTTCCGGGAAAGCAGCACC (double strand) [STAT-1 oligonucleotide]” bind [1]?
A: binds

Q: Does “CAGAGCCGGCGGGAAAGGTGCGGGCGGTGC (double strand) [E2F1 oligonucleotide]” bind [2]?
A: binds

Q: Does “GATCATATCTGCGGGGCGGGGCAGACACAG (double strand) [Sp1 oligonucleotide]” bind ([3]; NAD+ and nicked DNA, no PARP-1)?
A: binds

Q: Does “GATCATATCTGCGGGGCGGGGCAGACACAG (double strand) [Sp1 oligonucleotide]” bind ([3]; PARP-1 + NAD+ + PJ34 (binding entirely restored))?
A: binds

Q: Does “GATCATATCTGCGGGGCGGGGCAGACACAG (double strand) [Sp1 oligonucleotide]” bind ([4]; extract of H2O2-treated PARP-1+/+ cells, Sp1 protein level unchanged)?
A: binds more weakly

Q: Does “GATCATATCTGCGGGGCGGGGCAGACACAG (double strand) [Sp1 oligonucleotide]” bind ([4]; extract of PARP-1+/+ cells treated with PJ34 + H2O2)?
A: binds

Q: Does “GATCATATCTGCGGGGCGGGGCAGACACAG (double strand) [Sp1 oligonucleotide]” bind [5]?
A: binds

Q: Does “GATCATATCTGCGGGGCGGGGCAGACACAG (double strand) [Sp1 oligonucleotide]” bind [6]?
A: binds

Q: Does “GATCATATCTGCGGGGCGGGGCAGACACAG (double strand) [Sp1 oligonucleotide]” bind ([7]; unlabeled, 100-fold excess competes entirely)?
A: binds

Q: Does “GATCCCCGCGTTGAGTCATTCGCCTC (double strand) [AP-1 oligonucleotide]” bind [8]?
A: binds

Q: Does “GATCTTATTTTGGATTGAAGCCAATATGAG (double strand) [NFI oligonucleotide]” bind ([7]; unlabeled NFI oligo, 100- and 500-fold, does not compete with the Sp1 probe)?
A: no binding

— publication PMC2175517
